The nature of this test: qHTS Assay for Modulators of Lamin A Splicing. The following applies: HeLa LMNA splicing GFP/RFP minigene ratio, 48 h. Put shortly: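 S3 HeLa cells stably expressing lamin A-EGFP splicing minigene plus DsRed2, 600 cells/well, 48 h compound exposure at 37C. Laser-scanning cytometry; analysed as GFP (500-530 nm)/RFP (575-640 nm) total intensity ratio; 0.5% DMSO vehicle.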
The mark [1] stands for this setting: measured here: GFP splicing reporter channel.
The mark [2] stands for this setting: measured here: RFP viability control channel.

SMILES strings stand for the structures. Where “and” joins values, the source holds several entries; their conditions need not be identical. Identical values can stand only once. The list shows a part of the results. Shown are side measurements of this screen, not its main read-out; they come without a call. Compounds called inactive in the main read-out are mostly missing here. The note in brackets gives the kind of curve behind each potency; many fits are weak.

For the compound `Cc1c(Cl)cccc1N=c1c([N+](=O)[O-])nn(-c2ccccc2)n1O`, the AC50 (in general, the midpoint of the concentration-response curve, whichever way the signal moves) under setting [1] was 12.6 µM [rising, partial curve] and the AC50 under setting [2] was 7.08 µM [rising, partial curve]. `Clc1ccccc1-c1ccc2ncnc(NCCN3CCOCC3)c2c1`: the AC50 under setting [1] is 1.12 µM [falling, partial curve]. `c1ccn2cc(CSc3nnc4ccccn34)nc2c1`: under setting [2], the AC50 was 0.112 µM [rising, full curve, poor fit].

For `CCn1ncc(C2=NOC(C(=O)Nc3ccccc3C(=O)OC)C2)c1C` (centres undefined), the AC50 under setting [1] was 20 µM [rising, single point] and the concentration at half-maximal activity (AC50) under setting [2] is 22.4 µM [rising, partial curve]. For `O=C1N/C(=C/c2ccc(Br)cc2)C(O)=C1C=NCc1ccccc1`, the half-maximal activity concentration (AC50) under setting [2] was 5.62 µM [rising, single point].

As for `CN(C(=O)COC(=O)c1c2c(nc3ccccc13)/C(=C/c1cccc([N+](=O)[O-])c1)CCC2)C1CCS(=O)(=O)C1` (centres undefined), the AC50 is 35.5 µM [falling, single point] under setting [1] and 20 µM [falling, single point] under setting [2]. As for `CCN1CCN(Cc2ccc(NC(=O)Nc3ccc(SC)cc3)cc2)CC1`, the AC50 under setting [2] is 5.62 µM [rising, partial curve, poor fit]. As to `CCC(C)n1ncn(-c2ccc(N3CCN(c4ccc(OCC5COC(Cn6cncn6)(c6ccc(Cl)cc6Cl)O5)cc4)CC3)cc2)c1=O` (centres undefined), the AC50 reads like this: under setting [1], 35.5 nM [rising, full curve] and 1.58 µM [rising, full curve]; under setting [2], 4.47 µM [rising, full curve, poor fit].

In the case of `CCOC(=O)C1=C(Nc2ccccc2)CC(C)(O)C(C(=O)OCC)C1c1ccc(Br)cc1` (centres undefined), the half-maximal activity concentration (AC50) under setting [1] was 31.6 µM [rising, single point]. Turning to `COC(=O)c1ccc(/C=N\NC(=O)c2ccc(C)cc2Cl)cc1`, the AC50 under setting [1] is 11.2 µM [rising, partial curve]. `COc1ccc(-c2cc(-c3nnc(COC(=O)C4CC4)o3)c3ccccc3n2)cc1OC`: the half-maximal activity concentration (AC50) under setting [2] is 12.6 µM [rising, single point]. Still for that read-out and setting: in the case of `COc1ccc(-c2cc(C(F)(F)F)n3ncc(C(=O)Nc4c(C)n(C)n(-c5ccccc5)c4=O)c3n2)cc1` it was 0.794 µM [falling, full curve, poor fit]. Take `Cc1cccc(Nc2ccccc2C(=O)O)c1C`: under setting [1], the AC50 is 1.26 µM [falling, full curve, poor fit].

As to `Cc1ccc(NC(=O)c2nn(C34CC5CC(CC(C5)C3)C4)cc2[N+](=O)[O-])cc1`, the AC50 by setting is: under setting [1], 7.08 µM [rising, partial curve, poor fit]; under setting [2], 11.2 µM [rising, partial curve]. For `COc1ccccc1NCc1cccn1-c1nnc(N2CCCCCC2)s1`, the AC50 under setting [1] was 0.562 µM [falling, partial curve, poor fit]. As for `O=C(/C=C\Nc1ccc2c(c1)OCO2)c1cccs1`, the AC50 reads like this: under setting [1], 0.0447 µM [rising, full curve, poor fit]; under setting [2], 0.0891 µM [rising, full curve, poor fit]. `CCOc1cc(N)c(Cl)cc1C(=O)NCC1CN(Cc2ccc(F)cc2)CCO1` (centres undefined): the AC50 under setting [2] is 0.224 µM [rising, full curve, poor fit]. `COc1cccc(CN2CCN(Cc3cccc4nonc34)CC2CCO)c1` (centres undefined): the AC50 under setting [1] is 0.0112 µM [rising, full curve, poor fit]. On the same count and under the same terms, in the case of `CCOc1ccc(S(=O)(=O)Nc2ccc3oc(C)c(C(=O)OC(C)C)c3c2)cc1` it was 35.5 µM [falling, single point]. For the compound `CCOc1cc(-c2conc2N)cc(OCC)c1OCC`, the AC50 under setting [2] was 11.2 µM [rising, partial curve]. As to `CNC(=O)NC(=O)CSc1nc(-c2cccs2)c(C#N)c(=O)[nH]1`, the concentration at half-maximal activity (AC50) under setting [1] was 25.1 µM [falling, partial curve, poor fit]. As for `CN(CCc1ccccn1)C(=O)CCC1CCCN(C(=O)c2ccccn2)C1` (centres undefined), the AC50 under setting [2] was 0.178 µM [falling, partial curve]. With `C=C1C(=O)O[C@@H]2[C@H]3O[C@]3(C)CCC=C(C)CC[C@@H]12`, the AC50 by setting is: under setting [1], 7.08 µM [falling, full curve]; under setting [2], 7.08 µM [falling, partial curve].

Turning to `COc1cccc(N2CCN(Cc3nc(N)nc(N4CCCc5ccccc54)n3)CC2)c1`, the AC50 under setting [1] was 10 µM [falling, partial curve, poor fit]. For the compound `O=C1CCCCC1C(Nc1ccc(Br)cc1)c1ccccc1` (centres undefined), under setting [2], the AC50 was 15.8 µM [rising, single point].

Take `NC(=O)[C@@H]1CCCNc2c(F)cc([N+](=O)[O-])cc2C(=O)N[C@@H](CO)C(=O)NCC(=O)N1`: under setting [1], the concentration at half-maximal activity (AC50) is 0.0891 µM [falling, full curve, poor fit]. Regarding `O=C(Nc1ccccc1)Nc1nc2ccccc2s1`, under setting [1], the AC50 is 35.5 µM [falling, single point].

On to `NC(=O)N[C@H]1NC(=O)NC1=O`, for which the AC50 under setting [1] was 0.00316 µM [falling, full curve, poor fit]. As for `CN(Cc1ccccc1)C(=O)COC(=O)c1cc(-c2ccc(Cl)s2)nc2ccccc12`, the AC50 under setting [2] was 35.5 µM [rising, single point].

Consider `CCc1ccc(C(=O)COC(=O)c2n[nH]c3ccccc23)cc1`, for which the AC50 reads like this: under setting [1], 35.5 µM [falling, partial curve, poor fit]; under setting [2], 35.5 µM [falling, partial curve]. Consider `CCN(CC)c1ccc(/C=N/NC(=O)Nc2ccccc2)cc1`, for which the AC50 reads like this: under setting [1], 14.1 µM [falling, single point]; under setting [2], 35.5 µM [falling, partial curve]. As for `Cn1nnnc1SCC(=O)NNC(=O)c1ccc(Cl)cc1`, the concentration at half-maximal activity (AC50) under setting [2] is 0.501 µM [rising, partial curve]. Regarding `COc1ccc(-c2cn3nc(N4CCCC(C(=O)Nc5cccc(Cl)c5C)C4)sc3n2)cc1` (centres undefined), the AC50 under setting [1] was 0.0224 µM [falling, full curve, poor fit] and the half-maximal activity concentration (AC50) under setting [2] is 35.5 µM [falling, partial curve, poor fit]. In the case of `C[C@@H]1NC(=O)[C@H](CCCN=C(N)N)NC(=O)c2cc([N+](=O)[O-])cc(I)c2NCCC[C@@H](C(N)=O)NC1=O`, the AC50 under setting [1] was 0.00282 µM [falling, full curve, poor fit]. Turning to `CC(=O)c1cccc(NS(=O)(=O)c2ccc3c(c2)oc(=O)n3C)c1`, the AC50 was 12.6 µM [rising, partial curve, poor fit] under setting [1] and 15.8 µM [rising, partial curve] under setting [2]. On to `COc1ccc(C(C(=O)NCC2CCCO2)N(C(=O)CNC(=O)c2cccs2)c2ccccc2C)cc1OC` (centres undefined), for which the AC50 reads like this: under setting [1], 0.0112 µM [falling, full curve, poor fit]; under setting [2], 6.31 µM [falling, partial curve, poor fit].

For the compound `O=C(CNc1cccc([N+](=O)[O-])c1)N/N=C/c1ccc([N+](=O)[O-])o1`, under setting [2], the AC50 was 0.316 µM [rising, partial curve, poor fit]. Take `COc1cccc(-n2cc(C(=O)OCc3ccc(F)c(F)c3)c3ccccc3c2=O)c1`: the AC50 reads like this: under setting [1], 1 µM [falling, full curve, poor fit]; under setting [2], 1.12 µM [falling, full curve, poor fit]. As to `O=C(CSc1nnc(-c2c[nH]c3ccccc23)o1)N1c2ccccc2CCc2ccccc21`, the AC50 under setting [2] was 6.31 µM [rising, full curve]. Turning to `Cc1ccc(S(=O)(=O)N2CCN(Cc3nc4ccc(C)cc4o3)CC2)cc1`, the AC50 is 4.47 µM [rising, single point] under setting [1] and 6.31 µM [rising, partial curve, poor fit] under setting [2].

Regarding `CCn1c(SCC(=O)N/N=C/C=C/c2ccccc2[N+](=O)[O-])nnc1-c1ccc(Cl)cc1`, the concentration at half-maximal activity (AC50) under setting [2] is 35.5 µM [rising, single point]. Regarding `O=C(CS(=O)(=O)c1cccc2nsnc12)N1CCN(c2cccc(C(F)(F)F)c2)CC1`, the AC50 runs as follows: under setting [1], 0.398 µM [falling, full curve, poor fit]; under setting [2], 0.0708 µM [falling, full curve, poor fit]. With `NC(=O)N/N=C/c1ccc(-c2cccc(C(F)(F)F)c2)o1`, under setting [1], the AC50 was 0.0126 µM [rising, full curve].

For the compound `Cc1cc(-c2ccccc2)nc(Oc2ccc(C(C)(C)C)cc2)c1S(C)(=O)=O`, the AC50 under setting [2] was 28.2 µM [rising, single point]. As for `O=[N+]([O-])c1cccc(/C=N/n2c(-c3cccnc3)n[nH]c2=S)c1`, under setting [1], the concentration at half-maximal activity (AC50) was 25.1 µM [rising, single point]. For the compound `Oc1csc(Cc2nc(-c3ccc4ccccc4c3)cs2)n1`, the AC50 runs as follows: under setting [1], 35.5 µM [falling, single point]; under setting [2], 25.1 µM [falling, partial curve]. Consider `Cc1ccc(-c2cc(-c3nnc(SCC(=O)N(C)CCC#N)n3N)c3ccccc3n2)cc1`, for which the AC50 under setting [2] was 35.5 µM [rising, single point]. Regarding `Cc1ccc(S(=O)(=O)N2CCN(C(=O)c3ccc(OCc4c(C)noc4C)cc3)CC2)cc1`, under setting [2], the AC50 was 15.8 µM [rising, single point].

Regarding `COc1ccc(N(C)C(=O)c2cnc(N3CCN(c4ncccn4)CC3)c3ccccc23)cc1`, the AC50 under setting [2] is 4.47 µM [rising, full curve, poor fit]. In the case of `COc1cccc(CN2CCNC(=O)C2CC(=O)NCCc2nc(C)c(C)s2)c1OC` (centres undefined), the AC50 under setting [2] is 25.1 µM [falling, partial curve, poor fit]. On to `CCN(CC)c1ccc2c(c1)oc(=O)c1c(Cl)cc(=O)oc12`, for which, under setting [1], the AC50 is 11.2 µM [falling, partial curve, poor fit]. On to `CN(CCOc1ccc(C[C@H](Nc2ccccc2C(=O)c2ccccc2)C(=O)O)cc1)c1ccccn1`, for which the half-maximal activity concentration (AC50) runs as follows: under setting [1], 5.62 µM [falling, partial curve]; under setting [2], 5.62 µM [falling, single point].
